# In PubChem BioAssay AID504834 (National Center for Advancing Translational Sciences (NCATS), 2011):
# Hit rate of the full screen: of about 320,000 compounds, about 22,000 (6.9%) were called active. The shares of active, inactive and inconclusive entries below differ from those in the screen. The call rests on the fitted dose curve; in most records, active means well fitted inhibition curve with a large enough effect; inconclusive means small, poorly fitted or top-dose-only effect, or another doubt; inactive means no such curve, though single readings can be large or run the other way. A potency beside an inconclusive call is a rough fit, not a confirmed value. Some compounds were tested as several samples or in several runs, with calls that do not always agree.
# Test: Primary qHTS for delayed death inhibitors of the malarial parasite plastid, 96 hour incubation
# Conditions: P. falciparum luciferase reporter growth; series mostly up to 28.7 µM; activity change, negative = inhibition: at the top concentration
# Summary of the method: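 Two-generation exposure (96 h) targets delayed-death phenotype. Reporter parasites carrying integrated firefly luciferase, in red cells at 2% hematocrit and 0.05% parasitemia final, kept at 37 C, 5% CO2; luminescence loss indicates inhibition.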
# On the % scale 0 is the no-effect control and ±100 the full control effect; potency means the concentration at half of the fitted maximal effect.
Structure (SMILES),"activity change, negative = inhibition",Potency
CC(C)NC(=O)c1onc(CSc2ccc(Cl)cc2)c1C(=O)O,inactive: 83.9%,
Cc1nn(C)c(C)c1/C=N/NC(=O)c1csc2ccccc12,inactive: 13.9%,
O=C1CN(C(=O)COc2cccc(F)c2)c2ccccc2N1,,"inconclusive: 9.28 µM [inhibitor, partial curve]"
O=C(NCCSC1CCCCC1)c1ccccc1,,"inconclusive: 18.5 µM [inhibitor, single point]"
C=CCc1cccc2cc(C(=O)N(CC)CC)c(=O)oc12,inactive: 24.9%,
COc1ccccc1NS(=O)(=O)c1cc(NC(=O)c2cnccn2)ccc1N1CCOCC1,,"inconclusive: 11.7 µM [inhibitor, partial curve, poor fit]"
O=C(NCC1COc2ccccc2O1)c1cc(S(=O)(=O)N2CCOCC2)c(Cl)cc1Cl (stereo unspecified),,"inconclusive: 1.85 µM [inhibitor, full curve]"
CC(=O)c1ccc(S(=O)(=O)NC2CC(=O)N(c3ccc(Cl)cc3)C2)cc1 (stereo unspecified),inactive: -5.9%,
Cc1ccc(Cl)cc1NC(=O)CC1NCCNC1=O (stereo unspecified),inactive: -10.8%,
Cn1cc(C(=O)NCCN2CCN(c3cccc(Cl)c3)CC2)c2c3ccccc3n(C)c2c1=O,,"inconclusive: 1.65 µM [inhibitor, partial curve, poor fit]"
COc1ccc(C)cc1S(=O)(=O)N(CC(=O)N1CCOCC1)Cc1ccccc1,inactive: -15.6%,
CSc1ccc(Cl)c(C(=O)N(C)CC(=O)Nc2ccc(N3CCOCC3)cc2)c1,inactive: -1.44%,
COc1ccc(C(C)(C)NC(=O)C2CCC(=O)N(CCCN3CCCC3=O)C2)cc1 (stereo unspecified),,"inconclusive: 11.7 µM [inhibitor, partial curve, poor fit]"
COc1ccc2cc(S(=O)(=O)N3CCCC(C)C3)ccc2c1 (stereo unspecified),inactive: -2.35%,
COc1cccc(CNc2ncnc3ccc(-c4c(C)noc4C)cc23)c1,,active: 5.86 µM
C=CCNC(=S)Nc1ccc(OC(F)F)c(Cl)c1,inactive: -16.1%,
C=CC1=C(C(=O)O)N2C(=O)[C@@H](NC(=O)C(N=O)c3csc(N)n3)[C@H]2SC1 (stereo partly specified),inactive: 2%,
CCN1CCN(C(=O)c2ccc3c(=O)n(Cc4ccccc4OC)c(=S)[nH]c3c2)CC1,inactive: 160%,
CCc1ccc(NC(=O)CSc2nc3ccsc3c(=O)n2CCCCCC(=O)O)cc1,,"inconclusive: 18.5 µM [inhibitor, single point]"
CC(=O)N1CCc2cc(S(=O)(=O)NCCC(=O)N3CCN(c4ccccn4)CC3)ccc21,,"inconclusive: 10.4 µM [inhibitor, single point]"
COc1ccc(C(=O)c2cn[nH]c2-c2ccc(C)cc2O)cc1,inactive: -8.12%,
O=C(NNC(=O)C12CC3CC(CC(C3)C1)C2)c1ccccc1O,,"inconclusive: 18.5 µM [inhibitor, single point]"
Cc1cc(C(=O)COC(=O)CN(C)S(=O)(=O)c2ccc(Cl)cc2)c(C)n1Cc1cccs1,inactive: 12.3%,

# Gathered by group, the entries above with a Cl atom
Structure (SMILES),"activity change, negative = inhibition",Potency
CC(C)NC(=O)c1onc(CSc2ccc(Cl)cc2)c1C(=O)O,inactive: 83.9%,
O=C(NCC1COc2ccccc2O1)c1cc(S(=O)(=O)N2CCOCC2)c(Cl)cc1Cl (stereo unspecified),,"inconclusive: 1.85 µM [inhibitor, full curve]"
CC(=O)c1ccc(S(=O)(=O)NC2CC(=O)N(c3ccc(Cl)cc3)C2)cc1 (stereo unspecified),inactive: -5.9%,
Cc1ccc(Cl)cc1NC(=O)CC1NCCNC1=O (stereo unspecified),inactive: -10.8%,
Cn1cc(C(=O)NCCN2CCN(c3cccc(Cl)c3)CC2)c2c3ccccc3n(C)c2c1=O,,"inconclusive: 1.65 µM [inhibitor, partial curve, poor fit]"
CSc1ccc(Cl)c(C(=O)N(C)CC(=O)Nc2ccc(N3CCOCC3)cc2)c1,inactive: -1.44%,
C=CCNC(=S)Nc1ccc(OC(F)F)c(Cl)c1,inactive: -16.1%,
Cc1cc(C(=O)COC(=O)CN(C)S(=O)(=O)c2ccc(Cl)cc2)c(C)n1Cc1cccs1,inactive: 12.3%,

# Additional results follow:

Structure (SMILES),"activity change, negative = inhibition",Potency
CCC1CN(C(=O)N2CCC(C(=O)NCCc3ccccc3OC)CC2)c2ccccc2O1 (stereo unspecified),,"inconclusive: 16.5 µM [inhibitor, single point]"
CCCC(c1nnnn1Cc1ccco1)N1CCN(C(=O)c2ccco2)CC1 (stereo unspecified),,"inconclusive: 18.5 µM [inhibitor, single point]"
CCN1CCN(C(=O)c2ccccc2Nc2ccc(SC(F)F)cc2)CC1,,"inconclusive: 18.5 µM [inhibitor, partial curve, poor fit]"
CC1(C)C2CCC(C2)C1(C)NC(=O)CNCc1cccs1 (stereo unspecified),inactive: 1.58%,
CC1CCCC(NC(=O)c2nn(C)c3c2CS(=O)(=O)c2ccccc2-3)C1C (stereo unspecified),inactive: 3.27%,
Cc1ccccc1N1CC(C(=O)N2CCc3ccccc32)CC1=O (stereo unspecified),,"inconclusive: 11.7 µM [inhibitor, single point]"
CC(=O)NCCN1C(=O)C2C3c4ccccc4C(c4ccccc43)C2C1=O (stereo unspecified),,"inconclusive: 0.0029 µM [inhibitor, full curve, poor fit]"
CC1=CS/C(=C(/C#N)C(=O)NCc2ccco2)N1c1ccccc1,inactive: -17.4%,
CCCCc1c(O)nc(SCC(=O)N2CCOCC2)n(-c2ccc(OC)cc2)c1=O,,"inconclusive: 0.0147 µM [inhibitor, partial curve, poor fit]"
C=CCn1c(COc2ccccc2)nnc1SCC(=O)NCC(=O)OCC,inactive: 4.6%,
CCc1cc(SC#N)ccc1N,,"inconclusive: 18.5 µM [inhibitor, partial curve, poor fit]"
COC(=O)C[n+]1cccc2ccccc21,,"inconclusive: 18.5 µM [inhibitor, single point]"
COc1ccc(-c2nc3nc(SC)nn3cc2C)cc1F,,"inconclusive: 0.147 µM [inhibitor, full curve, poor fit]"
CCOc1ccc(C2=Nc3ccccc3C(c3ccc(N4CCOCC4)cc3)=NN2)cc1,,"inconclusive: 9.28 µM [inhibitor, single point]"
Cc1c2cnn(-c3ccccc3)c(=O)c2c(C)n1CCCC(=O)N1CCN(c2ncccn2)CC1,,"inconclusive: 0.0104 µM [inhibitor, full curve, poor fit]"
COc1ccc(-n2nccc2-c2nn(-c3cccc(OC)c3)c(=O)n(C)c2=O)cc1,inactive: -6.28%,
NS(=O)(=O)c1ccc(NC(=O)c2ccc3nccnc3c2)cc1,,"inconclusive: 4.15 µM [inhibitor, single point]"
CC1CC(C)CN(S(=O)(=O)c2ccc(NC(=O)[C@@H]3CCCN3C(=O)c3cccs3)cc2)C1 (stereo partly specified),,"inconclusive: 10.4 µM [inhibitor, single point]"
CCCN(CC(=O)Nc1ccccc1C)C(=O)Cc1c(C)nc2ccccc2c1C,,"inconclusive: 18.5 µM [inhibitor, single point]"
CC(C)c1ccc(/C=N/NC(=O)c2nnn(-c3nonc3N)c2CN(C)C2CCCCC2)cc1,inactive: 2.7%,
CCN1C(=NCCc2cccs2)N[C@@H](c2cccs2)C(C(=O)OC)=C1C,,"inconclusive: 3.29 µM [inhibitor, full curve, poor fit]"
O=C(COc1ccc(Cl)cc1)NCc1nnc(SCC(=O)N2CCCC2)o1,inactive: 0%,
